Assay results from publication doi:10.1101/459594.
Results are given in words; binding and its absence hold for the method and conditions named. Binding seen in cells or lysates may run through a third protein. Some binding calls cover weakened binding; strength is not graded here. For some of these results: Sequences can lack the tags named with a protein.

Legend:
Assay in all cases: co-IP
[1] = target: T1, Spc105^222::mCherry (budding yeast) (UniProt P53148)
T1 sequence: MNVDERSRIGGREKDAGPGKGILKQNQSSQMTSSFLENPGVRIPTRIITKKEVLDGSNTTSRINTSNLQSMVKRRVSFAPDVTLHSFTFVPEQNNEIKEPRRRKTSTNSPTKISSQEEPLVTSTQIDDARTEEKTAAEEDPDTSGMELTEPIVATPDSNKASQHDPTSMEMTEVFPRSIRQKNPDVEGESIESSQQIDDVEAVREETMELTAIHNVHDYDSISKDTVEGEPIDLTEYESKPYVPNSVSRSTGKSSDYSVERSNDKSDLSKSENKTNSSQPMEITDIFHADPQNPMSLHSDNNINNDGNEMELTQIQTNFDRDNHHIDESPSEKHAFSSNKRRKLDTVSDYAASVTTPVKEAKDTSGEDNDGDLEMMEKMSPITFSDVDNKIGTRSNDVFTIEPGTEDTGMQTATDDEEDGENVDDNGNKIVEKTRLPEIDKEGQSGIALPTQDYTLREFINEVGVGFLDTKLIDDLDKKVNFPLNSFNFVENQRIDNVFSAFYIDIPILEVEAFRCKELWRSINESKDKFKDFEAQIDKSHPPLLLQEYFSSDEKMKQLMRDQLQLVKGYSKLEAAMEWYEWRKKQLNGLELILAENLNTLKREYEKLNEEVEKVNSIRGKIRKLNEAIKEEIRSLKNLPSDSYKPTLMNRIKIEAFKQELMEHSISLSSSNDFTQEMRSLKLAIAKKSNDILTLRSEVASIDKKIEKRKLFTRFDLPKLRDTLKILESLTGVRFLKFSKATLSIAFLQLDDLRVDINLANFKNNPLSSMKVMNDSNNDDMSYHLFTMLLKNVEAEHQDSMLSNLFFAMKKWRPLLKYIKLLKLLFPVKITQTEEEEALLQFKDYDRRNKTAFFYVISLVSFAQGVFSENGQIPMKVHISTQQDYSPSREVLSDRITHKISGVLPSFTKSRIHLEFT

[2] = target: T2, Dsn1-His-Flag (budding yeast) (UniProt P40568)
T2 sequence: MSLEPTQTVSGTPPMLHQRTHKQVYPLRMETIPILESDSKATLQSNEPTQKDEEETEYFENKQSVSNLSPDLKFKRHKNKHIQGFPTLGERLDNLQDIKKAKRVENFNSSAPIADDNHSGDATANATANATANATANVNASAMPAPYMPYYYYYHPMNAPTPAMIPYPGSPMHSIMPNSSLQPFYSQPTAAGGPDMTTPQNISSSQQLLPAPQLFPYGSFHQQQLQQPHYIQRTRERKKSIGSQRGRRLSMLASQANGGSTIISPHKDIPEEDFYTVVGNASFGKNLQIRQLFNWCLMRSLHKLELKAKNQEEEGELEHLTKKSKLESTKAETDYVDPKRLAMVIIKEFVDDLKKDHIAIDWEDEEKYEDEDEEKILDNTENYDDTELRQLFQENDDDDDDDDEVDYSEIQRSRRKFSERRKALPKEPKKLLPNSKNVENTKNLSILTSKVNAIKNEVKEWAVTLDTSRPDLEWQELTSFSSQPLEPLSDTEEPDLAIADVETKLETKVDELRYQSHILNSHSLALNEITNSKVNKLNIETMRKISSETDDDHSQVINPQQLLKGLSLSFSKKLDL

[3] = target: T3, Dsn1-His-Flag (budding yeast), P40568; details: remark: other sources report otherwise
T3 chain: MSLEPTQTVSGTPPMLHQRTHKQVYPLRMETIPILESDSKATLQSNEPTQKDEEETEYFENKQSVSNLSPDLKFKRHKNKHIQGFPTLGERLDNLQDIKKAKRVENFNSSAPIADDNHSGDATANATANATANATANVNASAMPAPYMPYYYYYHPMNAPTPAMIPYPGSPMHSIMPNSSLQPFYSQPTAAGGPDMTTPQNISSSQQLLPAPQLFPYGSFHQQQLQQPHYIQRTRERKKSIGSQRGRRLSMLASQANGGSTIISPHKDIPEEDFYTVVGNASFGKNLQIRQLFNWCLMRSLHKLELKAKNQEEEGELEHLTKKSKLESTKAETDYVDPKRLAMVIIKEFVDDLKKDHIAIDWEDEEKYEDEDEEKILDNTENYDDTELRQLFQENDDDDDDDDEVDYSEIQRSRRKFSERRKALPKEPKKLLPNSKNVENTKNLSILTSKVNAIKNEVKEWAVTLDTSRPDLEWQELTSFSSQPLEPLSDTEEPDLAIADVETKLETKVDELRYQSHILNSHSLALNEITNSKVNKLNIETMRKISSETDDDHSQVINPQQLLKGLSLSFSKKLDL

Row | Molecule | binding [2] | also measured
1 | Glc7-3xGFP (from UniProt P32598 1-312) (enzyme) | – | binding [1]: binds
2 | Spc105^222::mCherry (protein, UniProt P53148 1-917) MNVDERSRIGGREKDAGPGKGILKQNQSSQMTSSFLENPGVRIPTRIITKKEVLDGSNTTSRINTSNLQSMVKRRVSFAPDVTLHSFTFVPEQNNEIKEPRRRKTSTNSPTKISSQEEPLVTSTQIDDARTEEKTAAEEDPDTSGMELTEPIVATPDSNKASQHDPTSMEMTEVFPRSIRQKNPDVEGESIESSQQIDDVEAVREETMELTAIHNVHDYDSISKDTVEGEPIDLTEYESKPYVPNSVSRSTGKSSDYSVERSNDKSDLSKSENKTNSSQPMEITDIFHADPQNPMSLHSDNNINNDGNEMELTQIQTNFDRDNHHIDESPSEKHAFSSNKRRKLDTVSDYAASVTTPVKEAKDTSGEDNDGDLEMMEKMSPITFSDVDNKIGTRSNDVFTIEPGTEDTGMQTATDDEEDGENVDDNGNKIVEKTRLPEIDKEGQSGIALPTQDYTLREFINEVGVGFLDTKLIDDLDKKVNFPLNSFNFVENQRIDNVFSAFYIDIPILEVEAFRCKELWRSINESKDKFKDFEAQIDKSHPPLLLQEYFSSDEKMKQLMRDQLQLVKGYSKLEAAMEWYEWRKKQLNGLELILAENLNTLKREYEKLNEEVEKVNSIRGKIRKLNEAIKEEIRSLKNLPSDSYKPTLMNRIKIEAFKQELMEHSISLSSSNDFTQEMRSLKLAIAKKSNDILTLRSEVASIDKKIEKRKLFTRFDLPKLRDTLKILESLTGVRFLKFSKATLSIAFLQLDDLRVDINLANFKNNPLSSMKVMNDSNNDDMSYHLFTMLLKNVEAEHQDSMLSNLFFAMKKWRPLLKYIKLLKLLFPVKITQTEEEEALLQFKDYDRRNKTAFFYVISLVSFAQGVFSENGQIPMKVHISTQQDYSPSREVLSDRITHKISGVLPSFTKSRIHLEFT | binds | –
3 | Spc105^(BPM, 222::mCherry) (protein, UniProt P53148 1-917) MNVDERSRIGGREKDAGPGKGILKQNQSSQMTSSFLENPGVRIPTRIITKKEVLDGSNTTSRINTSNLQSMVKRRVSFAPDVTLHSFTFVPEQNNEIKEPAAAATSTNSPTKISSQEEPLVTSTQIDDARTEEKTAAEEDPDTSGMELTEPIVATPDSNKASQHDPTSMEMTEVFPRSIRQKNPDVEGESIESSQQIDDVEAVREETMELTAIHNVHDYDSISKDTVEGEPIDLTEYESKPYVPNSVSRSTGKSSDYSVERSNDKSDLSKSENKTNSSQPMEITDIFHADPQNPMSLHSDNNINNDGNEMELTQIQTNFDRDNHHIDESPSEKHAFSSNAAAALDTVSDYAASVTTPVKEAKDTSGEDNDGDLEMMEKMSPITFSDVDNKIGTRSNDVFTIEPGTEDTGMQTATDDEEDGENVDDNGNKIVEKTRLPEIDKEGQSGIALPTQDYTLREFINEVGVGFLDTKLIDDLDKKVNFPLNSFNFVENQRIDNVFSAFYIDIPILEVEAFRCKELWRSINESKDKFKDFEAQIDKSHPPLLLQEYFSSDEKMKQLMRDQLQLVKGYSKLEAAMEWYEWRKKQLNGLELILAENLNTLKREYEKLNEEVEKVNSIRGKIRKLNEAIKEEIRSLKNLPSDSYKPTLMNRIKIEAFKQELMEHSISLSSSNDFTQEMRSLKLAIAKKSNDILTLRSEVASIDKKIEKRKLFTRFDLPKLRDTLKILESLTGVRFLKFSKATLSIAFLQLDDLRVDINLANFKNNPLSSMKVMNDSNNDDMSYHLFTMLLKNVEAEHQDSMLSNLFFAMKKWRPLLKYIKLLKLLFPVKITQTEEEEALLQFKDYDRRNKTAFFYVISLVSFAQGVFSENGQIPMKVHISTQQDYSPSREVLSDRITHKISGVLPSFTKSRIHLEFT | binds | –
4 | Glc7-3xGFP, P32598 1-312 (enzyme) MDSQPVDVDNIIDRLLEVRGSKPGQQVDLEENEIRYLCSKARSIFIKQPILLELEAPIKICGDIHGQYYDLLRLFEYGGFPPESNYLFLGDYVDRGKQSLETICLLLAYKIKYPENFFILRGNHECASINRIYGFYDECKRRYNIKLWKTFTDCFNCLPIAAIIDEKIFCMHGGLSPDLNSMEQIRRVMRPTDIPDVGLLCDLLWSDPDKDIVGWSENDRGVSFTFGPDVVNRFLQKQDMELICRAHQVVEDGYEFFSKRQLVTLFSAPNYCGEFDNAGAMMSVDESLLCSFQILKPAQKSLPRQAGGRKKK | – | binding [3]: binds
